Assay results as given in publication PMC5651216, “Structural Basis for a Safety-Belt Mechanism That Anchors Condensin to Chromosomes”.
Changes are numbered by the printed parent chain. Results are given in words; binding and its absence hold for the method and conditions named. Some entries that bind do so weakly or less than the wild type. Tags and fused reporters may be left off the sequences shown. Values belong to the binder of their own block, whether it stands above or below them.

What was measured:
Assay in all cases: tandem affinity co-purification (HisTrap, Strep-Tactin) and SEC; condensin subunits overexpressed together in S. cerevisiae; HisTrap on Brn1-His12-HA3, Strep-Tactin on Smc4-StrepII3 (wash with 500 mM NaCl), Superose 6; SDS-PAGE and Coomassie staining
[1] = biological target: T1, Sc Brn1-His12-HA3 (S. cerevisiae) (UniProt P38170)
T1 sequence: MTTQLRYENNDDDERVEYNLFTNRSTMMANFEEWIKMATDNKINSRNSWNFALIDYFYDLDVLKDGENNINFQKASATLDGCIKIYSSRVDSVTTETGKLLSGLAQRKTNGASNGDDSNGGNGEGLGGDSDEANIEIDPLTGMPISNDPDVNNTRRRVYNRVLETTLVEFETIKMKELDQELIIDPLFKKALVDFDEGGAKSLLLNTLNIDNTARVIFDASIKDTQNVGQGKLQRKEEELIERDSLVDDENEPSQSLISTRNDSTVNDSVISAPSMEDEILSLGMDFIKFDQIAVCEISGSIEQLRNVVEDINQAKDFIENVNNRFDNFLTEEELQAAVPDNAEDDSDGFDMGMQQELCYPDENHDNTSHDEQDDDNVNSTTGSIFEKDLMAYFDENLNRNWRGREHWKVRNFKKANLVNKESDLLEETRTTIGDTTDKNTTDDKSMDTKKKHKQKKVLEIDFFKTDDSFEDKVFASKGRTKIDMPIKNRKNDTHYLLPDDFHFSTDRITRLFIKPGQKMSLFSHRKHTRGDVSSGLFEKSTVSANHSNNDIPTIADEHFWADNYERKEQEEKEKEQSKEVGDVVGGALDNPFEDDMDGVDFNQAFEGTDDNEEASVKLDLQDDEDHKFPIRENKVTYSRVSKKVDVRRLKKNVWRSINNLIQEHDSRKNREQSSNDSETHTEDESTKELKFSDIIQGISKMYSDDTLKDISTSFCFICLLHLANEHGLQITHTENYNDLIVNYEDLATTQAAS

[2] = biological target: T2, Sc Brn1_(BC1/2)-His12-HA3 (S. cerevisiae) (UniProt P38170)
T2 sequence: T1 sequence with K409D, R411D, K414D, K451D, K452D, K454D, K456D, K457D

[3] = biological target: T3, Sc Brn1ΦD-His12-HA3 (S. cerevisiae) (UniProt P38170)
T3 sequence: T1 sequence with M391D, F394D, W402D, W408D

binding [1]: binds
binding [2]: binds
binding [3]: binds
B1: Sc Smc4-StrepII3 (protein, UniProt Q12267 1-1418)
chain: MSDSPLSKRQKRKSAQEPELSLDQGDAEEDSQVENRVNLSENTPEPDLPALEASYSKSYTPRKLVLSSGENRYAFSQPTNSTTTSLHVPNLQPPKTSSRGRDHKSYSQSPPRSPGRSPTRRLELLQLSPVKNSRVELQKIYDRHQSSSKQQSRLFINELVLENFKSYAGKQVVGPFHTSFSAVVGPNGSGKSNVIDSMLFVFGFRANKMRQDRLSDLIHKSEAFPSLQSCSVAVHFQYVIDESSGTSRIDEEKPGLIITRKAFKNNSSKYYINEKESSYTEVTKLLKNEGIDLDHKRFLILQGEVENIAQMKPKAEKESDDGLLEYLEDIIGTANYKPLIEERMGQIENLNEVCLEKENRFEIVDREKNSLESGKETALEFLEKEKQLTLLRSKLFQFKLLQSNSKLASTLEKISSSNKDLEDEKMKFQESLKKVDEIKAQRKEIKDRISSCSSKEKTLVLERRELEGTRVSLEERTKNLVSKMEKAEKTLKSTKHSISEAENMLEELRGQQTEHETEIKDLTQLLEKERSILDDIKLSLKDKTKNISAEIIRHEKELEPWDLQLQEKESQIQLAESELSLLEETQAKLKKNVETLEEKILAKKTHKQELQDLILDLKKKLNSLKDERSQGEKNFTSAHLKLKEMQKVLNAHRQRAMEARSSLSKAQNKSKVLTALSRLQKSGRINGFHGRLGDLGVIDDSFDVAISTACPRLDDVVVDTVECAQHCIDYLRKNKLGYARFILLDRLRQFNLQPISTPENVPRLFDLVKPKNPKFSNAFYSVLRDTLVAQNLKQANNVAYGKKRFRVVTVDGKLIDISGTMSGGGNHVAKGLMKLGTNQSDKVDDYTPEEVDKIERELSERENNFRVASDTVHEMEEELKKLRDHEPDLESQISKAEMEADSLASELTLAEQQVKEAEMAYVKAVSDKAQLNVVMKNLERLRGEYNDLQSETKTKKEKIKGLQDEIMKIGGIKLQMQNSKVESVCQKLDILVAKLKKVKSASKKSGGDVVKFQKLLQNSERDVELSSDELKVIEEQLKHTKLALAENDTNMNETLNLKVELKEQSEQLKEQMEDMEESINEFKSIEIEMKNKLEKLNSLLTYIKSEITQQEKGLNELSIRDVTHTLGMLDDNKMDSVKEDVKNNQELDQEYRSCETQDESEIKDAETSCDNYHPMNIDETSDEVSRGIPRLSEDELRELDVELIESKINELSYYVEETNVDIGVLEEYARRLAEFKRRKLDLNNAVQKRDEVKEQLGILKKKRFDEFMAGFNIISMTLKEMYQMITMGGNAELELVDSLDPFSEGVTFSVMPPKKSWRNITNLSGGEKTLSSLALVFALHKYKPTPLYVMDEIDAALDFRNVSIVANYIKERTKNAQFIVISLRNNMFELAQQLVGVYKRDNRTKSTTIKNIDILNRT

binding [1]: binds
binding [2]: binds
binding [3]: binds
B2: Sc Ycs4 (protein, UniProt Q06156 1-1176)
chain: MSGFSLSEYLTKFQTTDRESYPRLQDPSRELNVIIDQLAVSPEQIDASPDSLEALIDLCHDFPHLTPKLQTQLSYLISSSLSNLSKDIKANLSSNVNFTEIGGLIPQWKRHLEEYGYLIQVLLTFLQDELHKVSSQSTNLNRSAKNSKNDSANVELFKRDCNQMENLLESITKLLEINLSKIFQTTPEKDLFIGLFTRPLFVLLEIEPVTKVSSLKMFIQRILAMCVKNHGQSSSIQSSLMTNLTYFLHLSVFNAELLKLLNDEYNYPQLTEDILKEISTRVFNAKDTTGPKAISNFLIKLSELSPGIMLRQMNLVITLLNNSSITLRCSVVEACGNIVAELAQDPQTMEHYKQQIAVLIELLEERFQDSNPYVRTKAIQGCSKICDLSSKFNKSKAKFTSLAVRSLQDRSSLVRRNSVKLLSKLLLKHPFKAIHGSQLRLSEWEEYLKGSESQLNSTLKKVESQETLNDTIERSLIEEEVEQDEGQCRTELEGSFNKSAELSRIENEVENINATNTSVLMKLKLMIVYYKDAISFIKEIHKSIELISNLLFSKNRNEVLESMDFLVLADAFDIELSEFGIKKMLHLVWMKGTNDEGTSISVHLIECYKQLFLTAPDSCNMQEKAAHIAKNLINLSIGASIADLASLEQLLGMMYEQKLIDQHVINILWAIYNSASKASMQKEQNVNNRDSEKGFSKEQIHGSIIILGMLSLADNEIALKGLESLLNIGLGAVGLKDLTLCRYSCLALERMVPKRSTIITKAINQELEDVAVKKLYAIIINYTKDNEYYPMCEQALSALFTISSKPDILATDLIREKTMMTFGKPEEEDSILSLEQSSRVVSLSQLLFIVGQVAIKTLVYLEKCEAEFKKRKIEAETRNGKVKNQGADVTNTTQDNGGDKELEMIGGTNEDDFTDAIQFVKENELLFGEKSILGKFCPIVEEIVSNSSRFSDPMLQRTATLCLEKLMCLSSKYCEKSLPLLITVMEKSPDPTIRSNAVLGLGDMAVCFNNLVDENTDYLYRRLHDENLMVQRTCLMTVTFLILAGQVKVKGQLGEMAKCLDNPDQGISDMCRLFFTELASKDNAIYNGFIDIFSNLSSDDLLGKESFKKIIKFLLTFIDKERHQKQLNEKLVGRLRKCETQKQWDDIAFVLNNLPYKNEDVTALLEQGFKVVSAKE

binding [1]: binds
binding [2]: binds
binding [3]: binds
B3: Sc Ycg1 (full length, overexpressed) (protein, UniProt Q06680 1-1035)
chain: MQDPDGIDINTKIFNSVAEVFQKAQGSYAGHRKHIAVLKKIQSKAVEQGYEDAFNFWFDKLVTKILPLKKNEIIGDRIVKLVAAFIASLERELILAKKQNYKLTNDEEGIFSRFVDQFIRHVLRGVESPDKNVRFRVLQLLAVIMDNIGEIDESLFNLLILSLNKRIYDREPTVRIQAVFCLTKFQDEEQTEHLTELSDNEENFEATRTLVASIQNDPSAEVRRAAMLNLINDNNTRPYILERARDVNIVNRRLVYSRILKSMGRKCFDDIEPHIFDQLIEWGLEDRELSVRNACKRLIAHDWLNALDGDLIELLEKLDVSRSSVCVKAIEALFQSRPDILSKIKFPESIWKDFTVEIAFLFRAIYLYCLDNNITEMLEENFPEASKLSEHLNHYILLRYHHNDISNDSQSHFDYNTLEFIIEQLSIAAERYDYSDEVGRRSMLTVVRNMLALTTLSEPLIKIGIRVMKSLSINEKDFVTMAIEIINDIRDDDIEKQEQEEKIKSKKINRRNETSVDEEDENGTHNDEVNEDEEDDNISSFHSAVENLVQGNGNVSESDIINNLPPEKEASSATIVLCLTRSSYMLELVNTPLTENILIASLMDTLITPAVRNTAPNIRELGVKNLGLCCLLDVKLAIDNMYILGMCVSKGNASLKYIALQVIVDIFSVHGNTVVDGEGKVDSISLHKIFYKVLKNNGLPECQVIAAEGLCKLFLADVFTDDDLFETLVLSYFSPINSSNEALVQAFAFCIPVYCFSHPAHQQRMSRTAADILLRLCVLWDDLQSSVIPEVDREAMLKPNIIFQQLLFWTDPRNLVNQTGSTKKDTVQLTFLIDVLKIYAQIEKKEIKKMIITNINAIFLSSEQDYSTLKELLEYSDDIAENDNLDNVSKNALDKLRNNLNSLIEEINERSETQTKDENNTANDQYSSILGNSFNKSSNDTIEHAADITDGNNTELTKTTVNISAVDNTTEQSNSRKRTRSEAEQIDTSKNLENMSIQDTSTVAKNVSFVLPDEKSDAMSIDEEDKDSESFSEVC
